Measured data: PubChem BioAssay AID1259308 (NCATS, 2017)

Test: 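Candidate targets for better recombinant protein yield in mammalian cells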 (primary screen)
Cell system: human HEK293 embryonic kidney cells stably expressing firefly luciferase (HEK-CMV-Luc2-Hygro)
Reagents: single siRNA against human genes, 0.8 pmol siRNA per well
Timing: 72 h
Measured: 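Reporter luminescence and viable-cell signal on separate replicate plates, given as percent of non-targeting control and median/MAD z-scores, plus per-cell luciferase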
Direction: total luciferase, z-score and total luciferase, % of control: higher = more reporter protein produced; luciferase per cell, z-score: higher = more reporter output per viable cell
Call rule: 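An siRNA counts as active if its total luciferase robust z-score exceeds 3; genes with two or more such siRNAs out of three were retested with fresh siRNAs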
Calls: active = raised luciferase; inactive = no rise
In all, the deposit lists about 59,000 reagents; this is a part drawn at random. In the full data, about 1,510 (2.6%) were called active. 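Calls use total luciferase alone and ignore viability, so some active siRNAs may act by altering cell number.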 A number with no mark means an inactive call. Reagents against one gene are numbered here. Further read-outs or replicates are left out here.

Target gene | reagent | total luciferase, z-score | total luciferase, % of control | luciferase per cell, z-score
IARS2 (GeneID 55699) | 1 | 0.364 | 89.1 | 0.149
IARS2 (GeneID 55699) | 2 | -1.15 | 59.1 | -1.55
IARS2 (GeneID 55699) | 3 | -1.03 | 61.5 | -1.01
LYSMD3 (GeneID 116068) | 1 | 1.02 | 102 | 0.557
LYSMD3 (GeneID 116068) | 2 | -0.16 | 78.7 | 0.191
LYSMD3 (GeneID 116068) | 3 | 1.71 | 116 | 2.02
DCD (GeneID 117159) | 1 | -0.0494 | 80.9 | -0.329
DCD (GeneID 117159) | 2 | 0.489 | 91.6 | 0.191
DCD (GeneID 117159) | 3 | -0.583 | 70.3 | -0.603
GCDH (GeneID 2639) | 1 | -2.08 | 40.6 | -2.77
GCDH (GeneID 2639) | 2 | 0.538 | 92.6 | -0.183
GCDH (GeneID 2639) | 3 | -0.11 | 79.7 | -0.367
CPPED1 (GeneID 55313) | 1 | -0.0989 | 79.9 | -0.277
CPPED1 (GeneID 55313) | 2 | -0.928 | 63.4 | -1.51
CPPED1 (GeneID 55313) | 3 | 0.62 | 94.2 | 0.68
PAQR3 (GeneID 152559) | 1 | -0.627 | 69.4 | -0.37
PAQR3 (GeneID 152559) | 2 | -0.645 | 69.1 | -0.305
PAQR3 (GeneID 152559) | 3 | -0.301 | 75.9 | -0.0841
PRKD1 (GeneID 5587) | 1 | 0.0797 | 83.5 | 0.163
PRKD1 (GeneID 5587) | 2 | -0.587 | 70.2 | 0.0736
PRKD1 (GeneID 5587) | 3 | -1.37 | 54.6 | -1.59
CAPN12 (GeneID 147968) | 1 | -1.35 | 55.1 | -1.74
CAPN12 (GeneID 147968) | 2 | 0.855 | 98.9 | 0.615
CAPN12 (GeneID 147968) | 3 | 0.233 | 86.5 | 0.884
ASB18 (GeneID 401036) | 1 | -0.723 | 67.5 | -1.39
ASB18 (GeneID 401036) | 2 | -0.666 | 68.6 | 0.478
ASB18 (GeneID 401036) | 3 | -0.523 | 71.5 | -1.18
CCNL2 (GeneID 81669) | 1 | -0.295 | 76 | -0.553
CCNL2 (GeneID 81669) | 2 | -0.101 | 79.9 | -0.242
CCNL2 (GeneID 81669) | 3 | -0.203 | 77.8 | 0.178

9 successive reagents from above, for reference:
Target gene | reagent | total luciferase, z-score | total luciferase, % of control | luciferase per cell, z-score
PAQR3 (GeneID 152559) | 1 | -0.627 | 69.4 | -0.37
PAQR3 (GeneID 152559) | 2 | -0.645 | 69.1 | -0.305
PAQR3 (GeneID 152559) | 3 | -0.301 | 75.9 | -0.0841
PRKD1 (GeneID 5587) | 1 | 0.0797 | 83.5 | 0.163
PRKD1 (GeneID 5587) | 2 | -0.587 | 70.2 | 0.0736
PRKD1 (GeneID 5587) | 3 | -1.37 | 54.6 | -1.59
CAPN12 (GeneID 147968) | 1 | -1.35 | 55.1 | -1.74
CAPN12 (GeneID 147968) | 2 | 0.855 | 98.9 | 0.615
CAPN12 (GeneID 147968) | 3 | 0.233 | 86.5 | 0.884

The listing continues:
Target gene | reagent | total luciferase, z-score | total luciferase, % of control | luciferase per cell, z-score
MRPL49 (GeneID 740) | 1 | -0.802 | 65.9 | -0.303
MRPL49 (GeneID 740) | 2 | 2.22 | 126 | 2.07
MRPL49 (GeneID 740) | 3 | 1.45 | 111 | 1.22
CCDC134 (GeneID 79879) | 1 | -0.133 | 79.2 | -0.135
CCDC134 (GeneID 79879) | 2 | 0.279 | 87.4 | 0.833
CCDC134 (GeneID 79879) | 3 | -1.56 | 50.8 | -2.26
SERBP1 (GeneID 26135) | 1 | -0.794 | 66.1 | -0.901
SERBP1 (GeneID 26135) | 2 | -1.15 | 59 | -1.23
SERBP1 (GeneID 26135) | 3 | -0.502 | 71.9 | 1.46
SCUBE1 (GeneID 80274) | 1 | -1.28 | 56.4 | -1.43
SCUBE1 (GeneID 80274) | 2 | 0.99 | 102 | 1.13
SCUBE1 (GeneID 80274) | 3 | -0.443 | 73.1 | -0.276
BEND4 (GeneID 389206) | 1 | -0.829 | 65.4 | -0.882
BEND4 (GeneID 389206) | 2 | 0.844 | 98.7 | 0.738
BEND4 (GeneID 389206) | 3 | 0.951 | 101 | 0.278
GABRE (GeneID 2564) | 1 | 0.313 | 88.1 | 1.13
GABRE (GeneID 2564) | 2 | -0.177 | 78.4 | -0.214
GABRE (GeneID 2564) | 3 | 0.715 | 96.1 | 0.326
KRT83 (GeneID 3889) | 1 | 1.13 | 104 | 0.707
KRT83 (GeneID 3889) | 2 | 0.311 | 88.1 | 0.603
KRT83 (GeneID 3889) | 3 | 0.509 | 92 | 1.37
KRT83 (GeneID 3889) | 4 | -1.28 | 56.4 | -0.858
KRT83 (GeneID 3889) | 5 | 0.767 | 97.1 | 1.29
KRT83 (GeneID 3889) | 6 | -0.873 | 64.5 | -1.48
GBP1 (GeneID 2633) | 1 | -1.32 | 55.6 | -1.42
GBP1 (GeneID 2633) | 2 | -0.0127 | 81.6 | -0.396
GBP1 (GeneID 2633) | 3 | 0.509 | 92 | 0.554
SP7 (GeneID 121340) | 1 | -0.47 | 72.5 | 1.08
SP7 (GeneID 121340) | 2 | 1.22 | 106 | 1.43
SP7 (GeneID 121340) | 3 | 0.534 | 92.5 | 0.505
IFNA7 (GeneID 3444) | 1 | 0.0311 | 82.5 | -0.0973
IFNA7 (GeneID 3444) | 2 | 3.7 (active) | 155 | 2.7
IFNA7 (GeneID 3444) | 3 | 0.488 | 91.6 | 0.416
YIPF3 (GeneID 25844) | 1 | 0.269 | 87.2 | 1.11
YIPF3 (GeneID 25844) | 2 | -0.0679 | 80.5 | -0.699
YIPF3 (GeneID 25844) | 3 | -0.568 | 70.6 | -0.621
CDC42EP4 (GeneID 23580) | 1 | -0.66 | 68.8 | -0.448
CDC42EP4 (GeneID 23580) | 2 | 1.45 | 111 | 0.897
CDC42EP4 (GeneID 23580) | 3 | 0.761 | 97 | 0.286
OR52W1 (GeneID 120787) | 1 | 1 | 102 | 1.32
OR52W1 (GeneID 120787) | 2 | 1.79 | 118 | 1.7
OR52W1 (GeneID 120787) | 3 | 1.35 | 109 | 1.3
SYNC (GeneID 81493) | 1 | -1.61 | 49.9 | -1.11
SYNC (GeneID 81493) | 2 | -0.241 | 77.1 | 1.4
SYNC (GeneID 81493) | 3 | 0.367 | 89.2 | 0.205
